The list shows a part of the results.

Sequences of proteins named here, by UniProt entry; tags and fusion partners are left off.
UniProt Q0JBA9, entry or part of it: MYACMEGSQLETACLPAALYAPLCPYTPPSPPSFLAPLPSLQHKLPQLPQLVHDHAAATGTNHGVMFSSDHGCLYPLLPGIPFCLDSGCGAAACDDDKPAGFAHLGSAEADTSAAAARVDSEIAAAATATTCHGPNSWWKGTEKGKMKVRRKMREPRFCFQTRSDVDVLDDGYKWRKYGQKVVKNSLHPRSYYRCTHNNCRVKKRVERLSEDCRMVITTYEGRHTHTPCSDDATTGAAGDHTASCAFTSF

This test deals with OsWRKY34 (Oryza sativa, UniProt Q0JBA9 1-250). The test is described as follows: protein-binding microarray (RPBM); PBS, 2% BSA, 51.3 ng/ul salmon testes DNA, 50 uM zinc acetate, 200 nM TF, 25 C, 1 h; high values mean tight binding. Particulars: protein: recombinant; tags: N-terminal polyhistidine and DsRed monomer fusion (pET32a); label: CyDye5-dUTP incorporated in the synthesized complementary strand; 3' TTTTT single-stranded linker to array surface; dsDNA, one strand shown. In a few lines: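 The binding signal is fluorescence intensity per array feature (arbitrary units). Readings came from an Axon 4000B scanner after a washed, 2% BSA-blocked, double-stranded custom Agilent array had been incubated for 1 h at 25 °C with 200 nM protein and 50 µM zinc acetate. The protein was a Ni–NTA-purified transcription factor fused N-terminally to polyhistidine and DsRed, expressed in E. coli BL21-CodonPlus.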
Consider “TCCATCCACCTCCACCTCCTCGCGGTTTCCATCCCGCGAACGGAGTCACCTAGTGCAG”, for which the binding signal was 8740 fluorescence intensity (a.u.).

On to “GTAATCTTCATCTTAATTACACCTCGTCACCTCGTCTTAACGGAGTCACCTAGTGCAG”, for which the binding signal was 8340 fluorescence intensity (a.u.).

For the sequence “CCTCATCACCATACTCAACCCAGTCACCCGCACCGTTCTCCGGAGTCACCTAGTGCAG”, the binding signal was 13400 fluorescence intensity (a.u.).

As for “ATGACCGTTTATTTTGTTGTAATCTCACGTATAGCTTGCTCGGAGTCACCTAGTGCAG”, the binding signal is 11200 fluorescence intensity (a.u.).

Take “TGGTGGTGGTTGTGGTTGGGTTGGTGTCTGTCTTTTGTACCGGAGTCACCTAGTGCAG”: the binding signal is 16300 fluorescence intensity (a.u.).

Take “GATCATCACACAAGAAACCACACCGCAAACCATGTCATCCCGGAGTCACCTAGTGCAG”: the binding signal is 8540 fluorescence intensity (a.u.).

“CGTCTTTTCTCCTTGTCTTGCTAGCCATATCAACGGAAGGCGGAGTCACCTAGTGCAG”: the binding signal is 8080 fluorescence intensity (a.u.).

“GATATAGCCGAAAGTATCCATCCTTTTTATAGCCTTTGTACGGAGTCACCTAGTGCAG”: the binding signal was 10600 fluorescence intensity (a.u.).

As to “TGCCGGTGCTCCCAACTCTTTCCTCGCTCCCCACGCTAGCCGGAGTCACCTAGTGCAG”, the binding signal was 8230 fluorescence intensity (a.u.).

On to “CCACTCAGCCTACCGCGTGTTCTGCTGCCCGACATGGCCACGGAGTCACCTAGTGCAG”, for which the binding signal is 8950 fluorescence intensity (a.u.).

In the case of “GATCGCTCCGTTTTTCATGTGCACGAGATTTGTTCCCATCCGGAGTCACCTAGTGCAG”, the binding signal was 9190 fluorescence intensity (a.u.).

As for “TAGTCCTCATCTTCTCGTGTATCTTTGGTTTTCTTCCCATCGGAGTCACCTAGTGCAG”, the binding signal is 8930 fluorescence intensity (a.u.).

In the case of “CTAGAAGGTGACTTTTCCAACTCAACTCTCGTTTTTTCACCGGAGTCACCTAGTGCAG”, the binding signal is 11500 fluorescence intensity (a.u.).

“GGCAACGAGGAGCCCGCGTCATATCGTCGCCATCTTGACGCGGAGTCACCTAGTGCAG”: the binding signal is 10900 fluorescence intensity (a.u.).

Regarding “ACCCATCCATCCCGTGAGGCCGTGATCCAGCTCTTGTTTCCGGAGTCACCTAGTGCAG”, the binding signal was 11100 fluorescence intensity (a.u.).

For “ATTCATTACACCATGTTTCTTTCTTTCTTTCGAGGACCCTCGGAGTCACCTAGTGCAG”, the binding signal was 8370 fluorescence intensity (a.u.).

With “TCCCCGACCGAGCTAGCGTCCGCTTCACTCACCTCGTCGTCGGAGTCACCTAGTGCAG”, the binding signal was 9500 fluorescence intensity (a.u.).

Turning to “GCCTTAGTAATTTTGGTAAACTAATTGTTGATGTCATGTTCGGAGTCACCTAGTGCAG”, the binding signal was 9320 fluorescence intensity (a.u.).

As for “TTAATCTGTCATTAGCAAATATTTACTGTAGCATCATATTCGGAGTCACCTAGTGCAG”, the binding signal was 8270 fluorescence intensity (a.u.).

On to “AATTCTCTCTCTCTACAGTCTAACACACATGCTGACAAAGCGGAGTCACCTAGTGCAG”, for which the binding signal is 8270 fluorescence intensity (a.u.).

On to “AATCCTACATGCCAAATCACCTCATCTTATCTCATCTATTCGGAGTCACCTAGTGCAG”, for which the binding signal was 9800 fluorescence intensity (a.u.).

“TACTGTTTTGCCTGGTAGATCCCTTTCGTTTGGCTGCAGACGGAGTCACCTAGTGCAG”: the binding signal is 10900 fluorescence intensity (a.u.).

As to “GCGTCGGGACTCCATTTTTTTTTCCCCGTGAGAAATTTCCCGGAGTCACCTAGTGCAG”, the binding signal is 9300 fluorescence intensity (a.u.).

With “ATTGGCCGCTCCGCCCGTTCCCGCCACGCTCGCCGCGACGCGGAGTCACCTAGTGCAG”, the binding signal is 8220 fluorescence intensity (a.u.).

On to “TAAGGGATCTCGCATGTCTGGTTTTGTGGTTCGAGGATGACGGAGTCACCTAGTGCAG”, for which the binding signal is 8710 fluorescence intensity (a.u.).

As for “CTCCAGCTCTCGCCTCTCGCCTCGTCCTTGTTCGTCATCGCGGAGTCACCTAGTGCAG”, the binding signal was 8370 fluorescence intensity (a.u.).

As to “TGTTGCTGCCTGGAGCTCAGGCGATCGATTTCGGTCGCCTCGGAGTCACCTAGTGCAG”, the binding signal was 8200 fluorescence intensity (a.u.).

On to “ATCAACATCTTTTCGTTGCACCTTTCTTGACTCTTTATGCCGGAGTCACCTAGTGCAG”, for which the binding signal was 10900 fluorescence intensity (a.u.).

For “CCGTCATCATGCACCAGTTTCTTTGCTAAATGTTCTTTGCCGGAGTCACCTAGTGCAG”, the binding signal is 8330 fluorescence intensity (a.u.).

Turning to “CTCACGTCACCTCCGCCGTCATCTGGTTCAAGCCCTATTTCGGAGTCACCTAGTGCAG”, the binding signal is 12600 fluorescence intensity (a.u.).

Regarding “GACCTCCTTTTTCACGGGGCCGGGGACGGTGAGAAGCGTCCGGAGTCACCTAGTGCAG”, the binding signal is 8610 fluorescence intensity (a.u.).

In the case of “TCCTGTTCGCTTTTCTGTTAGATCAAAAGCGATGTTTCTTCGGAGTCACCTAGTGCAG”, the binding signal is 8500 fluorescence intensity (a.u.).

Consider “CAGGCTGCCCAGCTCTGACATGTCGTCCTCACTTGCCGCCCGGAGTCACCTAGTGCAG”, for which the binding signal was 10100 fluorescence intensity (a.u.).

Regarding “AACCCTCACTCTCAGCATTGTTAAGCTCAGGATTTGGCCACGGAGTCACCTAGTGCAG”, the binding signal was 10100 fluorescence intensity (a.u.).

Regarding “TCGACTGCTGACCTGATTTTTCTCACAAGATTGTTTCGACCGGAGTCACCTAGTGCAG”, the binding signal was 9430 fluorescence intensity (a.u.).

For “AAATCATCCACTCTCATATTATCTAATTCTATTGGATGCACGGAGTCACCTAGTGCAG”, the binding signal is 8680 fluorescence intensity (a.u.).

Turning to “ATTTTGTGTTTTTGTGGTGGTAATATTGTTTTTGAGTTCTCGGAGTCACCTAGTGCAG”, the binding signal is 9700 fluorescence intensity (a.u.).

For the sequence “TTAACACGGACACGCCACACTCTGACCACAGCTCACATTCCGGAGTCACCTAGTGCAG”, the binding signal is 9190 fluorescence intensity (a.u.).

As to “GCGGTGGCGGTTGGGGTGGCGAGTGGGGAGGAGGAGGCGGCGGAGTCACCTAGTGCAG”, the binding signal was 18900 fluorescence intensity (a.u.).

On to “AGGAGGGCGGGGTCGTCGTCGTCCGGGGTGGTGGTGGCCGCGGAGTCACCTAGTGCAG”, for which the binding signal is 17000 fluorescence intensity (a.u.).

Regarding “CGCGCCGACCAGCCGCCATCATTCCGTGTCGCCCTGCACGCGGAGTCACCTAGTGCAG”, the binding signal was 8260 fluorescence intensity (a.u.).

“CCTCACCCACCCATCACACACGCAAAACCACCGTCGTATCCGGAGTCACCTAGTGCAG”: the binding signal is 8290 fluorescence intensity (a.u.).

These data come from publication PMC7819943, “Rice protein-binding microarrays: a tool to detect cis-acting elements near promoter regions in rice”.
